Data: publication PMC2854689
No constants are given. Whether binding was seen depends on the method and setting. Where a sequence is shown, tags or fusion partners need not be part of it.

What was measured:
[1] = biological target: T1, NLS-RFP-AKR2A (three tandem copies of the SV-40 large T antigen NLS fused to RFP and Arabidopsis AKR2A) (Arabidopsis) (UniProt Q9SAR5); test: nuclear mislocalization assay; co-expression in tobacco BY-2 cells (biolistic bombardment, 500 ng of the plasmid for the GFP fusion protein); relocation of the partner to the nucleus by NLS-RFP-AKR2A, against NLS-RFP alone, seen by epi-(immuno)fluorescence microscopy
T1 sequence: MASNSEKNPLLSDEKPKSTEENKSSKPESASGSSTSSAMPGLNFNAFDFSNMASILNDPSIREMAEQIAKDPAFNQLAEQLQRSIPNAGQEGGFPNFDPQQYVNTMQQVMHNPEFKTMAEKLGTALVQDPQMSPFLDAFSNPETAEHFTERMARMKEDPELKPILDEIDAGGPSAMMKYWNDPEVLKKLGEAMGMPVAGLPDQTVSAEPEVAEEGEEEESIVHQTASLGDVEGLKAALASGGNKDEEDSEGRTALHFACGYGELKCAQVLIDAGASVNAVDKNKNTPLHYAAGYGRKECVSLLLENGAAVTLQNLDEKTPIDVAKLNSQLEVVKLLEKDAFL

[2] = biological target: T1, NLS-RFP-AKR2A (three tandem copies of the SV-40 large T antigen NLS fused to RFP and Arabidopsis AKR2A) (Arabidopsis); test: nuclear mislocalization assay

| Substance | binding [1] | binding [2] |
| --- | --- | --- |
| myc-Cb5 (myc-tagged mitochondrial isoform of tung tree cytochrome b5) | no binding |  |
| myc-Cb5-HA (myc-Cb5 with the hemagglutinin epitope tag added to its C terminus) (tung tree (Aleurites fordii)) |  | no binding |
| myc-OEP9ΔCTS (N-terminal myc-tagged OEP9 with its hydrophilic C-terminal sequence deleted) (Arabidopsis) (domain or fragment) | no binding |  |
